# No constants are given. Whether binding was seen depends on the method and setting. In cells and extracts the contact can be indirect. Some entries that bind do so weakly or less than the wild type. Where a sequence is shown, tags or fusion partners need not be part of it.
# The chains behind the UniProt entries cited, without tags or fusion partners. Where a name states a change or a piece, a line headed by the entry shows the natural chain unless it says otherwise. Residues count along the entry.
# UniProt P03431: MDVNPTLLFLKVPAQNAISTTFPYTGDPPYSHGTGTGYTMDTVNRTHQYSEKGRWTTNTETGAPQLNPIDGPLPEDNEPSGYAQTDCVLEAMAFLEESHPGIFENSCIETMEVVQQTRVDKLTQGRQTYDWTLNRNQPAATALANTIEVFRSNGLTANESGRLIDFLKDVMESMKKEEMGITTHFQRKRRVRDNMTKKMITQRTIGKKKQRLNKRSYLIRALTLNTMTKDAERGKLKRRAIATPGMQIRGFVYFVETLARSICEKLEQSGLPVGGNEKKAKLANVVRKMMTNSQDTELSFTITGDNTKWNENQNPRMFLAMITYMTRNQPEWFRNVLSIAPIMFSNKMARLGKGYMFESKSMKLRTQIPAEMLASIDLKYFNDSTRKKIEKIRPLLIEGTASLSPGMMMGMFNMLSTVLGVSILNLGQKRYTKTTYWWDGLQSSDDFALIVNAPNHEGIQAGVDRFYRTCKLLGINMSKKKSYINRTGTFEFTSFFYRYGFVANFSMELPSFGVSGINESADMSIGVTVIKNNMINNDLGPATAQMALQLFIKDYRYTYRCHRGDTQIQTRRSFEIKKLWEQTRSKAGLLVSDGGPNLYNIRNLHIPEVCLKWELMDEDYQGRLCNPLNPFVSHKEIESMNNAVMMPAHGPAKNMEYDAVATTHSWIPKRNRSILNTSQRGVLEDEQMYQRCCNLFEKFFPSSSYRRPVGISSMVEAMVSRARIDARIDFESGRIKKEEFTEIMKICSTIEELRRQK
# Flag-PB1 (1-265) (influenza A/Puerto Rico/8/1934 (PR8, H1N1)): residues 1-265 of P03431
# B1: Myc-tagged DCAF7 (DDB1 and CUL4-associated factor 7) (protein, UniProt P61962 1-342)
# chain: MSLHGKRKEIYKYEAPWTVYAMNWSVRPDKRFRLALGSFVEEYNNKVQLVGLDEESSEFICRNTFDHPYPTTKLMWIPDTKGVYPDLLATSGDYLRVWRVGETETRLECLLNNNKNSDFCAPLTSFDWNEVDPYLLGTSSIDTTCTIWGLETGQVLGRVNLVSGHVKTQLIAHDKEVYDIAFSRAGGGRDMFASVGADGSVRMFDLRHLEHSTIIYEDPQHHPLLRLCWNKQDPNYLATMAMDGMEVVILDVRVPCTPVARLNNHRACVNGIAWAPHSSCHICTAADDHQALIWDIQQMPRAIEDPILAYTAEGEINNVQWASTQPDWIAICYNNCLEILRV
# Tests used:
# [1] = molecular target: Flag-tagged PB1 (polymerase basic protein 1) of influenza A/Puerto Rico/8/1934 (PR8, H1N1) (influenza A/Puerto Rico/8/1934 (PR8, H1N1)) (UniProt P03431); assay: co-IP
# [2] = molecular target: Flag-PB1 (1-265) (influenza A/Puerto Rico/8/1934 (PR8, H1N1)) (UniProt P03431); assay: co-IP
binder,measurement,setting,value
B1,binding,[1],binds
same,binding,[2],binds

# From PMC11998537
